In the supplement of paper PMC9549374:
The other results are listed elsewhere or left out. Rule as the data show it: active = 2-fold of DMSO or more and inactive = the rest. Single values of this set are uncertain. Some low values are a fixed figure set by the source, not a measured ratio.

Test system: CM7/1-hgem mouse ES cell-derived cardiomyocytes
Assay: maximal number of mAG-hGem(1/110)-positive cardiomyocytes over 96 h, fold-change vs DMSO; higher = more cardiomyocyte cell cycle activity
Settings: 1 µM; 96 (max over 12 h time points) h

SMILES	maximal number
COC(=O)C[C@H]1C(C)(C)[C@@H](O)[C@@H]2CC3=C4CC(O)O[C@@H](c5ccoc5)[C@]4(C)CCC3[C@@]1(C)C2=O (stereo partly drawn) [3,16-DIDEOXYMEXICANOLIDE-3beta-DIOL]	inactive: 1
COc1ccc(C(=O)NCc2ccc(OCCN(C)C)cc2)cc1OC	inactive: 1
C=C[C@@]1(C)CC(=O)[C@]2(O)[C@@]3(C)[C@@H](O)CCC(C)(C)[C@@H]3[C@H](O)[C@H](OC(C)=O)[C@@]2(C)O1	inactive: 1
C[C@H](CCC(=O)O)[C@H]1CC[C@H]2[C@@H]3CC[C@@H]4CCCC[C@]4(C)[C@H]3CC[C@]12C	inactive: 1
CC1(C)CC2C1CC[C@]1(CBr)CCC3C(CC(=O)O)C(=O)O[C@@]32C1 (some centres undefined) [BROMO-3-HYDROXY-4-(SUCCIN-2-YL)-CARYOLANE gamma-LACTONE]	inactive: 1
CC1=CC(=O)[C@H]2C(C)(C)CCC[C@]2(C)[C@@]1(O)CCc1ccoc1	inactive: 1
Cc1ccc(Nc2c(F)cccc2Cl)c(CC(=O)O)c1	inactive: 1
COC(=O)C[C@H]1C(C)(C)C2(O)OC34CC2C(=O)[C@]1(C)C3CC[C@]1(C)C4=CC(=O)O[C@H]1c1ccoc1 (stereo partly drawn) [8beta-HYDROXYCARAPIN, 3,8-HEMIACETAL]	inactive: 1
Fc1ccc([C@@H]2CCNC[C@H]2COc2ccc3c(c2)OCO3)cc1	inactive: 0
